# Earlier results, collected in patent US20220125818A1, “COMPOSITIONS AND METHODS FOR TREATMENT OF A CORONAVIRUS DISEASE (COVID-19) INFECTION” (priority 2020, published 2022).
# At least one compound was matched to its structure with a doubt left.
# How the values were obtained:
# [1] = target: human RNA Polymerase (RNAP) II (Homo sapiens, UniProt P24928+P30876); conditions: viral replication inhibition vs human RNAP II
# [2] = test system: Ebola; conditions: read-out: IC50, inhibition of viral replication
# [3] = test system: RSV; conditions: cell-based assays, read-out: IC50, inhibition of viral replication
compound,measurement,setting,value
CCC(CC)COC(=O)[C@H](C)N[P@](=O)(OC[C@H]1O[C@@](C#N)(c2ccc3c(N)ncnn23)[C@H](O)[C@@H]1O)Oc1ccccc1 [Remdesivir],selectivity versus human RNA Polymerase (RNAP) II,[1],approximately 500 fold
same,IC50,[2],~100 nM
same,IC50,[3],~100 nM
